Source: patent US20220259297A1
Results are given in words; binding and its absence hold for the method and conditions named. Some binding calls cover weakened binding; strength is not graded here.

The chains behind the UniProt entries cited, without tags or fusion partners. Where a name states a change or a piece, a line headed by the entry shows the natural chain unless it says otherwise.
UniProt P36896: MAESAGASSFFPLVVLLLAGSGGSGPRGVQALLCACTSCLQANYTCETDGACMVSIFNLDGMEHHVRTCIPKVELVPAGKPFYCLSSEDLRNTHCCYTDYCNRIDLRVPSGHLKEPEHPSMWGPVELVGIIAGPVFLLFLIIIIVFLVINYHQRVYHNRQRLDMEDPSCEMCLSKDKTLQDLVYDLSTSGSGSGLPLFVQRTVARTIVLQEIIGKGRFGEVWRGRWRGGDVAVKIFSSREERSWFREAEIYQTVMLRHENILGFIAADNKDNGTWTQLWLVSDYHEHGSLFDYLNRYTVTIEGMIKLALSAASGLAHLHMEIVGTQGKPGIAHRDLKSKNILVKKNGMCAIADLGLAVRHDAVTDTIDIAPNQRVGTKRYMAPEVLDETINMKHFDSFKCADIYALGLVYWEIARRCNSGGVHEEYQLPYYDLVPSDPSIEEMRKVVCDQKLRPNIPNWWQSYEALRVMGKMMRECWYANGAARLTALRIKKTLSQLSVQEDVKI
UniProt P27037: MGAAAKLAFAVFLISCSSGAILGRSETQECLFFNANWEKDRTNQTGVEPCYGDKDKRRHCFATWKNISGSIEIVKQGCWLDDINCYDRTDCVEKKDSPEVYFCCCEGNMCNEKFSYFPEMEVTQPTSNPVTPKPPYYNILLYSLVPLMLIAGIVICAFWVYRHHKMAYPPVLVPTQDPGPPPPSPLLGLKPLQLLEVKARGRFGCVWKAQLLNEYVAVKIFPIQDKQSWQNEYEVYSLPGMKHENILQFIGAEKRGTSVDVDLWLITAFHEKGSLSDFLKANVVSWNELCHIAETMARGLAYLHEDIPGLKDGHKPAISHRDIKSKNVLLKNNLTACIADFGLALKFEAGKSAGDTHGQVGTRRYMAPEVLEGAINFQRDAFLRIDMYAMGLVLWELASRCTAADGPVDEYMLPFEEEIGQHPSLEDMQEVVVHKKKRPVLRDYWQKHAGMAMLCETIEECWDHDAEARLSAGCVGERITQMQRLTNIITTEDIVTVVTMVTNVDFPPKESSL

Assays:
GDF11 [1] = molecular target: T1, GDF11 (UniProt O95390); assay: Biacore (SPR), ligands ranked by off-rate koff
T1 sequence (looked up): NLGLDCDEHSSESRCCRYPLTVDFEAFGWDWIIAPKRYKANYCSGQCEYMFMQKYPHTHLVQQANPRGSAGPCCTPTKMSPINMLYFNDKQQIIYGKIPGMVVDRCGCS

GDF11 [2] = molecular target: T1, GDF11; assay: SPR (Biacore), FIG. 49
activin B [3] = molecular target: T2, activin B (UniProt P09529); assay: SPR (Biacore), FIG. 49
T2 sequence (looked up): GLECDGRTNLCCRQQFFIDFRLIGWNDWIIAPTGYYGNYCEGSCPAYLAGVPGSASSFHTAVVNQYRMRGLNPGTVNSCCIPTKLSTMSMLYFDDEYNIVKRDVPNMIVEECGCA

GDF3 = molecular target: T3, GDF3 (UniProt Q9NR23); assay: Biacore (SPR), ligands ranked by off-rate koff
T3 sequence (looked up): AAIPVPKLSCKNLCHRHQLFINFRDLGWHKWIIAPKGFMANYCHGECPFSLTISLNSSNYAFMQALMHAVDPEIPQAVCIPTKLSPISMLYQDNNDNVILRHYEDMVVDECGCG

GDF8 = molecular target: T4, GDF8 (UniProt O14793); assay: Biacore (SPR), ligands ranked by off-rate koff
T4 sequence (looked up): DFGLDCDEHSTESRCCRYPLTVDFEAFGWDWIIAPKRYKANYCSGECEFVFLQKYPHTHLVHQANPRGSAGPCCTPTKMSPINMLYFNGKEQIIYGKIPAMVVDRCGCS

activin B [4] = molecular target: T2, activin B; assay: Biacore (SPR), ligands ranked by off-rate koff
BMP10 [5] = molecular target: T5, BMP10 (UniProt O95393); assay: SPR (Biacore), FIG. 53
T5 sequence (looked up): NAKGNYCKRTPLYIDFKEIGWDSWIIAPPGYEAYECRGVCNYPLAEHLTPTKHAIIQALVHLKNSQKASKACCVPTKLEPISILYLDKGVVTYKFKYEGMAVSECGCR

BMP15 [6] = molecular target: T6, BMP15 (UniProt O95972); assay: SPR (Biacore), FIG. 53
T6 sequence (looked up): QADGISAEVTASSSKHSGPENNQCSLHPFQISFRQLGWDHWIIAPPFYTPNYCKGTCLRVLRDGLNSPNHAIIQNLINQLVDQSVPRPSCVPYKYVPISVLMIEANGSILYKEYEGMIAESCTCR

activin B [7] = molecular target: T2, activin B; assay: SPR (Biacore), FIG. 53
BMP10 [8] = molecular target: T5, BMP10; assay: Biacore (SPR), ligands ranked by off-rate koff
BMP15 [9] = molecular target: T6, BMP15; assay: Biacore (SPR), ligands ranked by off-rate koff

Measured: binding

ALK4-Fc homodimer (from UniProt P36896 24-126) (Fc fusion)
binds: GDF11 [1]

ALK4-Fc:ActRIIA-Fc heterodimer (from UniProt P36896 24-126; P27037 20-135) (Fc fusion)
binds: GDF11 [2] | activin B [3] | GDF11 [1] | GDF3 | GDF8 | activin B [4]

ALK4-Fc:BMPRII-Fc heterodimer (from UniProt P36896 24-126; O35607 27-150) (Fc fusion)
binds: BMP10 [5] | BMP15 [6] | activin B [7] | BMP10 [8] | BMP15 [9] | activin B [4]

ActRIIA-Fc homodimer (from UniProt P27037 20-135) (Fc fusion)
binds: activin B [3] | BMP10 [8] | GDF11 [1] | GDF3 | activin B [4]
